The values that follow come from article PMC4566978.

Construct, isoform or probe ends are uncertain for at least one entry. Negatives hold for the conditions tested.

The data set concerns BnaA.TTG2.a.1 (His-tagged) (Brassica napus). In words: EMSA. The settings on record: Roche DIG Gel Shift kit binding protocol (buffer, salt, pH not stated), 100 ng protein, room temperature 30 min; 12% polyacrylamide gel in 25 mM Tris, 2 mM …; recombinant protein; protein details: His (pET-28a); label: digoxigenin. (A gel shift assay detects complexes by their altered migration in electrophoresis.)

With “CGTTGAACTTGAACTTGAATTCGTTGAACTTGAACTTGAATT (double strand) [mW-box]”, the binding result is listed as “no binding”.
The result for “CGTTGACCTTGACCTTGACTTCGTTGACCTTGACCTTGACTT (double strand) [W-box (classical)]” reads “binds”; that for “TGGTAATCATAGTACACCAAGTTGACTGCACAGTGATAACATATATAT (double strand) [YUC2 promoter fragment]”, “binds”; that for “TTCAAGAAAATGTCAAAGTTTCTACATTCGTACTATTATATAATTGACTGAAGAAATTA (double strand) [TRP5 promoter fragment]”, “binds”.
